These results are taken from paper PMC5098153.

Amino acid sequences for entries named in this document (tags omitted).
UniProt P17302: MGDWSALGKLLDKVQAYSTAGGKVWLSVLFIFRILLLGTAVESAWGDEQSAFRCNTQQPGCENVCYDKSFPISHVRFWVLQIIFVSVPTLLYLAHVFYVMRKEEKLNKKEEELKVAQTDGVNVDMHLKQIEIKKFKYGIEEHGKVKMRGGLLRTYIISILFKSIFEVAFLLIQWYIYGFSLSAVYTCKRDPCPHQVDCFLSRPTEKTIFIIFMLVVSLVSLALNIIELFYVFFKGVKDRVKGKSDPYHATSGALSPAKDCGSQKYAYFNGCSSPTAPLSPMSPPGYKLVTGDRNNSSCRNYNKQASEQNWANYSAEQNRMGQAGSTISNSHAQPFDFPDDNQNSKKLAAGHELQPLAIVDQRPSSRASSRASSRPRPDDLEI

Numbering of substitutions follows the chain as printed. Results are given in words; binding and its absence hold for the method and conditions named. Binding seen in cells or lysates may run through a third protein. Some entries that bind do so weakly or less than the wild type.

What all share (test): co-IP; U373 MG lysates (1% NP-40 in PBS, protease inhibitors; 1 mg protein, pre-cleared) incubated with mouse anti-hepaCAM extracellular domain antibody (clone 419305) and protein G agarose overnight at 4 °C; four washes; blot for connexin 43; mouse IgG1 (MOPC-21) as negative control
In one assay the target is T1, GlialCAM-R92Q (UniProt Q14CZ8).
T1 sequence: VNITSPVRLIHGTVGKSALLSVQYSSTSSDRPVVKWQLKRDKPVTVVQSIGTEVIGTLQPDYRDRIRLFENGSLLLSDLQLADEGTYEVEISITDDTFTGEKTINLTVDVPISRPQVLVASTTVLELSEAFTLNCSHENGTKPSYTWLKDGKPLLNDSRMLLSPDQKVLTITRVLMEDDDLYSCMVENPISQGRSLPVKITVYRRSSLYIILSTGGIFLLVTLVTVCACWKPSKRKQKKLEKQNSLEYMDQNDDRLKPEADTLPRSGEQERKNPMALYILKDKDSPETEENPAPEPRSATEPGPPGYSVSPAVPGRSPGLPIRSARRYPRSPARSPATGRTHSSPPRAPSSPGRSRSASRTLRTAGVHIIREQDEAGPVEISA

The target in another assay is T2, GlialCAM-R92W (UniProt Q14CZ8).
T2 sequence: T1 sequence with Q59W

In assay [1] the target is T3, Wild-type hepaCAM/GlialCAM (UniProt Q14CZ8).
T3 sequence: T1 sequence with Q59R

As for connexin 43 (from UniProt P17302 1-382), the binding entry in the assay with GlialCAM-R92Q is listed as “binds weakly”; with GlialCAM-R92W, “binds weakly”; in assay [1] it was “binds”.
